Assay results taken from PubChem BioAssay AID1487 (National Center for Advancing Translational Sciences (NCATS), 2009).
Some of the results follow. Further columns of the screen follow, without active or inactive calls. Compounds called inactive in the main read-out are mostly missing here. Words in brackets tell the shape of the fitted curve; partial curves, single points and poor fits give uncertain potencies.

Test: qHTS Assay for Modulators of Lamin A Splicing
Conditions: HeLa LMNA splicing GFP/RFP minigene ratio, 48 h
Method in brief: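 S3 HeLa cells stably expressing lamin A-EGFP splicing minigene plus DsRed2, 600 cells/well, 48 h compound exposure at 37C. Laser-scanning cytometry; analysed as GFP (500-530 nm)/RFP (575-640 nm) total intensity ratio; 0.5% DMSO vehicle.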

[1] = measured here: RFP viability control channel
[2] = measured here: GFP splicing reporter channel

| Compound | AC50 [1] | AC50 [2] |
| --- | --- | --- |
| CC(Oc1ccc(Cl)cc1)C(=O)NCCN1C(=O)S/C(=C\c2cccnc2)C1=O (stereo not drawn) | 4.47 µM [rising, full curve] |  |
| COc1ccc(CNc2cc(-c3cccc(C#N)c3)ncn2)c(OC)c1 |  | 4.47 µM [falling, partial curve, poor fit] |
| C[C@H](Oc1ccccc1)C(=O)N[C@@H]1C(=O)N2[C@@H]1SC(C)(C)[C@@H]2C(=O)O | 0.0631 µM [falling, single point] | 0.562 µM [falling, full curve, poor fit] |
| Cc1cccc(OCc2nnc(SCC(=O)OC3CCCCC3)o2)c1 | 39.8 µM [falling, partial curve, poor fit] |  |
| COCCN1C(=O)N[C@@H](c2cccc(C(F)(F)F)c2)[C@@H](C(=O)OC)[C@H]1C | 1.26 µM [falling, single point] |  |
| Cc1cc(C(=O)Cn2cncn2)c(C)n1CCc1ccc(F)cc1 | 35.5 µM [rising, single point] |  |
| O=C(NC1=NCCS1)c1cc(-c2ccc(-c3ccccc3)cc2)nc2ccccc12 | 15.8 µM [rising, partial curve] |  |
| C[C@@H]1[C@H](C)CC[C@@]2(C(=O)O[C@H]3O[C@@H](CO[C@H]4O[C@@H](CO)[C@@H](O[C@H]5O[C@@H](C)[C@@H](O)[C@@H](O)[C@@H]5O)[C@@H](O)[C@@H]4O)[C@@H](O)[C@@H](O)[C@@H]3O)CC[C@]3(C)C(=CC[C@H]4[C@@]5(C)C[C@@H](O)[C@@H](O)[C@](C)(CO)[C@@H]5CC[C@@]43C)[C@@H]12 | 0.355 µM [falling, single point] | 0.398 µM [falling, partial curve] |
| Cc1cccc(C(=O)NC(=S)NNC(=O)c2ccc(Cl)cc2)c1 | 6.31 µM [rising, full curve] | 2.82 µM [rising, full curve] |
| CCCc1ccc(Oc2c(-c3ccc(O)c(C)c3O)n[nH]c2C)cc1 | 31.6 µM [rising, single point] |  |
| OCc1ccnc2c(O)cccc12 | 15.8 µM [rising, single point] | 14.1 µM [rising, partial curve] |
| CCOC(=O)c1sc2nccc(OC)c2c1N=CN(C)C | 17.8 µM [falling, partial curve, poor fit] |  |
| COc1cc(NCCC(=O)c2cccs2)c(OC)cc1Cl | 0.00891 µM [rising, full curve, poor fit] |  |
| CN(C)S(=O)(=O)c1ccc(N2CCCC2)c(C(=O)Nc2nc3ccccc3s2)c1 | 20 µM [rising, single point] |  |

Fetched by structure from the entries so far, 2 records:

| Compound | AC50 [1] | AC50 [2] |
| --- | --- | --- |
| COc1cc(NCCC(=O)c2cccs2)c(OC)cc1Cl | 0.00891 µM [rising, full curve, poor fit] |  |
| COCCN1C(=O)N[C@@H](c2cccc(C(F)(F)F)c2)[C@@H](C(=O)OC)[C@H]1C | 1.26 µM [falling, single point] |  |
